Record: PubChem BioAssay AID504808 (Drosophila RNAi Screening Center, 2011)
In all, the deposit lists about 21,000 reagents; shown is a random part of those that have a named target and a result. Over the whole deposit, 18 (0.084%) were called active. 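Raw counts without plate normalisation, one of two replicates; the ratio scores behind the calls were not deposited.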 The record does not give: the amount of reagent, the time to read-out.

Assay: 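Chromatin factors that keep E2F targets switched off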 (primary screen)
Cell system: Drosophila S2 cells
Reagents: long dsRNA against Drosophila genes
Measurement: 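Firefly luciferase driven by E2F sites, normalised to Renilla luciferase on the same minimal promoter, measured by plate reader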
Direction: E2F firefly: higher = more E2F reporter activity; Renilla normaliser: higher = more normaliser reporter signal
Hit rule: 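Called active if the normalised E2F reporter went up by over 50%; the cutoff is arbitrary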

Hmgcr (HMG Coenzyme A reductase) [DRSC16704] | E2F firefly, rep 1: 86244; Renilla normaliser, rep 1: 5804; Call: inactive
CG32187 [DRSC10521] | E2F firefly, rep 1: 1.59e5; Renilla normaliser, rep 1: 8212; Call: inactive
CG31272 [DRSC16058] | E2F firefly, rep 1: 1.31e5; Renilla normaliser, rep 1: 5991; Call: inactive
CG15894 [DRSC18098] | E2F firefly, rep 1: 1.10e5; Renilla normaliser, rep 1: 5707; Call: inactive
CG15894 [DRSC18099] | E2F firefly, rep 1: 44143; Renilla normaliser, rep 1: 3239; Call: inactive
how (held out wings) [DRSC16966] | E2F firefly, rep 1: 1.09e5; Renilla normaliser, rep 1: 7207; Call: inactive
RpL26 (Ribosomal protein L26) [DRSC10726] | E2F firefly, rep 1: 62429; Renilla normaliser, rep 1: 11589; Call: inactive
CG13532 [DRSC04174] | E2F firefly, rep 1: 99476; Renilla normaliser, rep 1: 4320; Call: inactive
mAChR-C (muscarinic Acetylcholine Receptor, C-type) [DRSC17890] | E2F firefly, rep 1: 97403; Renilla normaliser, rep 1: 5250; Call: inactive
Porin2 [DRSC02584] | E2F firefly, rep 1: 1.74e5; Renilla normaliser, rep 1: 5930; Call: inactive
CG31204 [DRSC15106] | E2F firefly, rep 1: 47271; Renilla normaliser, rep 1: 3549; Call: inactive
CG9826 [DRSC04570] | E2F firefly, rep 1: 1.05e5; Renilla normaliser, rep 1: 4042; Call: inactive
CG17105 [DRSC02574] | E2F firefly, rep 1: 1.53e5; Renilla normaliser, rep 1: 5397; Call: inactive
ninaC (neither inactivation nor afterpotential C) [DRSC03579] | E2F firefly, rep 1: 1.00e5; Renilla normaliser, rep 1: 3941; Call: inactive
CG8067 [DRSC07065] | E2F firefly, rep 1: 150; Renilla normaliser, rep 1: 41; Call: inactive
tipE (temperature-induced paralytic E) [DRSC08738] | E2F firefly, rep 1: 79151; Renilla normaliser, rep 1: 3917; Call: inactive
CG14860 [DRSC14983] | E2F firefly, rep 1: 1.18e5; Renilla normaliser, rep 1: 6709; Call: inactive
CG14070 [DRSC02373] | E2F firefly, rep 1: 1.50e5; Renilla normaliser, rep 1: 5140; Call: inactive
hec (hector) [DRSC19895] | E2F firefly, rep 1: 58882; Renilla normaliser, rep 1: 4657; Call: inactive
betaggt-I (beta subunit of type I geranylgeranyl transferase) [DRSC03494] | E2F firefly, rep 1: 1.50e5; Renilla normaliser, rep 1: 5135; Call: inactive
vsg (visgun) [DRSC10219] | E2F firefly, rep 1: 1.03e5; Renilla normaliser, rep 1: 5745; Call: inactive
PCB (Pyruvate carboxylase) [DRSC05939] | E2F firefly, rep 1: 2822; Renilla normaliser, rep 1: 229; Call: inactive
RpS23 (Ribosomal protein S23) [DRSC07169] | E2F firefly, rep 1: 2599; Renilla normaliser, rep 1: 195; Call: inactive
CG3770 [DRSC04416] | E2F firefly, rep 1: 74961; Renilla normaliser, rep 1: 3200; Call: inactive
RAF2 (RING-associated factor 2) [DRSC10443] | E2F firefly, rep 1: 83357; Renilla normaliser, rep 1: 3603; Call: inactive
RAF2 (RING-associated factor 2) [DRSC10454] | E2F firefly, rep 1: 1.59e5; Renilla normaliser, rep 1: 7498; Call: inactive
Msp300 (Muscle-specific protein 300 kDa) [DRSC00854] | E2F firefly, rep 1: 1.29e5; Renilla normaliser, rep 1: 5468; Call: inactive
Msp300 (Muscle-specific protein 300 kDa) [DRSC00856] | E2F firefly, rep 1: 1.35e5; Renilla normaliser, rep 1: 5531; Call: inactive
Msp300 (Muscle-specific protein 300 kDa) [DRSC00857] | E2F firefly, rep 1: 1.43e5; Renilla normaliser, rep 1: 5487; Call: inactive
Msp300 (Muscle-specific protein 300 kDa) [DRSC00858] | E2F firefly, rep 1: 1.35e5; Renilla normaliser, rep 1: 5275; Call: inactive
Msp300 (Muscle-specific protein 300 kDa) [DRSC02360] | E2F firefly, rep 1: 1.38e5; Renilla normaliser, rep 1: 4485; Call: inactive
Msp300 (Muscle-specific protein 300 kDa) [DRSC03369] | E2F firefly, rep 1: 81193; Renilla normaliser, rep 1: 3563; Call: inactive
Msp300 (Muscle-specific protein 300 kDa) [DRSC03370] | E2F firefly, rep 1: 1.64e5; Renilla normaliser, rep 1: 4934; Call: inactive

Entries above whose gene name begins with P or p (2):
Porin2 [DRSC02584] | E2F firefly, rep 1: 1.74e5; Renilla normaliser, rep 1: 5930; Call: inactive
PCB (Pyruvate carboxylase) [DRSC05939] | E2F firefly, rep 1: 2822; Renilla normaliser, rep 1: 229; Call: inactive
